In ChEMBL document CHEMBL5154815, “A Series of Substituted Bis-Aminotriazines Are Activators of the Natriuretic Peptide Receptor C” (J Med Chem, 2022):

Legend:
[1] = Stability in Sprague-Dawley rat hepatocytes assessed as clearance per […] at 1 uM after 20 mins by LC-MS/MS analysis; format: ADME, cell-based, Hepatocyte
[2] = Protein binding in human plasma by equilibrium dialysis assay

Row | Structure (SMILES) | CLH [1] | PPB [2]
1 | CC(=O)Nc1ccc(Nc2ncnc(N[C@@H](CC(C)C)C(=O)OC(C)(C)C)n2)cc1 | 113.7 µL/min | 94.1%
2 | CC(=O)Nc1ccc(Nc2ncnc(N[C@@H](Cc3ccccc3)C(=O)OC(C)(C)C)n2)cc1 | 230.4 µL/min | 97.2%
